For at least one compound, name, drawing or mass did not settle the structure.
Test system: DAOY medulloblastoma cells
Test: DAOY medulloblastoma cells, MTT assay and light microscopy
Type: cell-based
Conditions: after 24 h treatment; each treatment had holo-Tf (20 μg/well)
Experimental: The compound ART-Phe-Sal was tested on DAOY medulloblastoma cells using the MTT assay. DAOY Medulloblastoma cells (5,000 cells/200 μL) was seeded on a 96 well plate and incubated for 24 h at 37° C. Cell culture medium was removed after 24 h and 150 μL of medium with treatment was added. Each experimental treatment had holo-Tf (20 μg/well). Treatment assay was viewed under light microscope after 24 h.
Treatment medium was removed after 48 h, and 100 μL of cell medium was added. MTT Reagent (10 μL, 12 mM) was added to each well. This solution was incubated at 37° C. for 4 h. Isopropanol (100 μL) was added to each well to lyse the cells, which were then incubated at 4° C. for 30 m. After incubation each well was plunged (3×200 μL) to ensure the cells were lysed. The incubated medium with MTT reagent was then centrifuged at 13,000 RPM in an eppendorph centrifuge for 3 minutes at room temperature. 100 μL of supernatant was read in a plate reader at λ=570 nm. FIG. 13 compares the effect of dihydroartemisinin (DHA) and ART-Phe-Sal on DAOY medulloblastoma cell line. The concentration of holo-Tf was 1.7 μM.

Question: With C[C@H]1[C@@H](O)O[C@@H]2O[C@@]3(C)CC[C@H]4[C@H](C)CC[C@@H]1[C@@]24OO3 [DHA, dihydroartemisinin, reference compound] as the molecule, how does the “cell shrinkage under light microscope” value read?
Answer: Impressive cell shrinkage
